# Source: the supplement of paper PMC12819154, “High-throughput peptide-centric local stability assay extends protein–ligand identification to membrane proteins, tissues and bacteria” (Nature Structural & Molecular Biology, 2025)
# By UniProt entry, the sequences of proteins in these tests, tags left out. Where a name states a change or a piece, a line headed by the entry shows the natural chain unless it says otherwise.
# UniProt Q9BTD8: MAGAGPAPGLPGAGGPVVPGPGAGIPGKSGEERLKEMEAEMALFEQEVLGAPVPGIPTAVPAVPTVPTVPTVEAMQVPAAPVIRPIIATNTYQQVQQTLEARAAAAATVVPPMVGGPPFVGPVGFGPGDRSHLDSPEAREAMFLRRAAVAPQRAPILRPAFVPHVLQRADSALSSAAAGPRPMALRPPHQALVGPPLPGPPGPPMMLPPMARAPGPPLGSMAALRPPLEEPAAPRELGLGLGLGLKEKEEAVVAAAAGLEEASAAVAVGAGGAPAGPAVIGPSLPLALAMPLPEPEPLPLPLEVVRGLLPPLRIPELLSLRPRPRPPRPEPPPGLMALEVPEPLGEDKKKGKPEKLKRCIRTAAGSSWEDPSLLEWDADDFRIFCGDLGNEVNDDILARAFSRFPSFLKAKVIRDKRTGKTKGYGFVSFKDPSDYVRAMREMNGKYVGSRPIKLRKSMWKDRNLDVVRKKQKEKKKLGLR
# UniProt Q99747: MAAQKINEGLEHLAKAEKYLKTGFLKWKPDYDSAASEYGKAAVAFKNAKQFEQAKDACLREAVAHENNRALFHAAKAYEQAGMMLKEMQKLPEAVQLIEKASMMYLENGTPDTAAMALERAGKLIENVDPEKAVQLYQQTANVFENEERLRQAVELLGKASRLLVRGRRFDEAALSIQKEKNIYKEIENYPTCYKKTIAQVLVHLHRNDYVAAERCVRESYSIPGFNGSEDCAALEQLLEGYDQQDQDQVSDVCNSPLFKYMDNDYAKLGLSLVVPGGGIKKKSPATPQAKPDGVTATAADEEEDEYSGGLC
# UniProt Q9BV73: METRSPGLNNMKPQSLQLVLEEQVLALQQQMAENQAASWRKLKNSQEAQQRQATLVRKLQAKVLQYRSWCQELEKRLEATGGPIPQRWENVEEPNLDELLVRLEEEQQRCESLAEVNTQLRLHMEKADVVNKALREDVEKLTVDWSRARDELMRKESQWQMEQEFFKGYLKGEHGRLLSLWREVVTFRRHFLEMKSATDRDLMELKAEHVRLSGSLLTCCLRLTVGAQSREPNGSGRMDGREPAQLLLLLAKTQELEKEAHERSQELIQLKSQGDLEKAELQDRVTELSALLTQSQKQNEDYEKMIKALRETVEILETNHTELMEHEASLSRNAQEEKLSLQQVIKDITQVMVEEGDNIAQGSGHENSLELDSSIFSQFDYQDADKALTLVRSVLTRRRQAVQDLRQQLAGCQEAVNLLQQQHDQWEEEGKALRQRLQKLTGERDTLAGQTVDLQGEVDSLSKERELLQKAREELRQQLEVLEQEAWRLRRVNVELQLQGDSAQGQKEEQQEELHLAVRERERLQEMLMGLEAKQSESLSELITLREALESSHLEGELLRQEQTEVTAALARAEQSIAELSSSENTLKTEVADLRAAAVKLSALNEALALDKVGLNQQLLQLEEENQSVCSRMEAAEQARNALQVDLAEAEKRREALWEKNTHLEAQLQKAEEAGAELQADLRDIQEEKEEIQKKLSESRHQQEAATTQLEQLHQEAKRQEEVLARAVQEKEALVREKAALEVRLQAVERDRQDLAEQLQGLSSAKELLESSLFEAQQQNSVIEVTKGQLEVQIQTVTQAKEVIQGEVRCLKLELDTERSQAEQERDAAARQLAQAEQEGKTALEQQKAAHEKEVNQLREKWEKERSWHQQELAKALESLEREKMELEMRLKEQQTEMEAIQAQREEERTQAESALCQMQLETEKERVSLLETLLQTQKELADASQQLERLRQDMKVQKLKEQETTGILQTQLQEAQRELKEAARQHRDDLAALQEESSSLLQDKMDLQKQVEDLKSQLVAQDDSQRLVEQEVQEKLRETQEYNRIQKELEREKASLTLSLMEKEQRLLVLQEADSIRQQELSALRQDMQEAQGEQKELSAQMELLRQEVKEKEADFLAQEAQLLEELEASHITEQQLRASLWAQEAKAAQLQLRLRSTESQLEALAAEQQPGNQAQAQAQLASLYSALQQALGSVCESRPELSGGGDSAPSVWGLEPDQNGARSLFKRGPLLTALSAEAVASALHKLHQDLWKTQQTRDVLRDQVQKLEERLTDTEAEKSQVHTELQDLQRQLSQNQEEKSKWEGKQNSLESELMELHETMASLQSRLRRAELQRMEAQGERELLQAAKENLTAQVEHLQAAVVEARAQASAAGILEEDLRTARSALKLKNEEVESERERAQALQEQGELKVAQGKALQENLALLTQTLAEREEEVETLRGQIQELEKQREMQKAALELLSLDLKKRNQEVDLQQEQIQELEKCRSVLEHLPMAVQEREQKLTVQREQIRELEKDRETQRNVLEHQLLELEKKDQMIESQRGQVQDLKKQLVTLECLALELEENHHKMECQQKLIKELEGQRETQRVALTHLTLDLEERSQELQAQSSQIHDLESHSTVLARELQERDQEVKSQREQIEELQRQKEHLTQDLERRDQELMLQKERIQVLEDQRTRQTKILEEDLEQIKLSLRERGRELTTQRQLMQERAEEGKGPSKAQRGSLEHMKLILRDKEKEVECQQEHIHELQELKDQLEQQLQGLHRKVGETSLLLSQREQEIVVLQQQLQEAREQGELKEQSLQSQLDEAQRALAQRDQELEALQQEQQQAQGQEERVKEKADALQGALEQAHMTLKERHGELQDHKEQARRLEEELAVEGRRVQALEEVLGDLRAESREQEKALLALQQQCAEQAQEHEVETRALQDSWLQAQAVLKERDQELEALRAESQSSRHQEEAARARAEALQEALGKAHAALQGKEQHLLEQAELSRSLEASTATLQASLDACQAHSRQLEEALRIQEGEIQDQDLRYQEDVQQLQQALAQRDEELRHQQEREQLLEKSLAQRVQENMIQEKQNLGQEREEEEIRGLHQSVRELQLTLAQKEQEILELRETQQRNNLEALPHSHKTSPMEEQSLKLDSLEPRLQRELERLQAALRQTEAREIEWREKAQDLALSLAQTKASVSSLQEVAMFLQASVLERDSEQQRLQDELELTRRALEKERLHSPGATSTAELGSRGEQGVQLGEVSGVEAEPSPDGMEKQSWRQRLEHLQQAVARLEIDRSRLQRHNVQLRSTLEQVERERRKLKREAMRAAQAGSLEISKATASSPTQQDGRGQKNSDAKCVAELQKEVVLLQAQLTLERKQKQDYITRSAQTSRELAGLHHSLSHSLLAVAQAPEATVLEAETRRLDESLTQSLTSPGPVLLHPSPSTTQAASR
# UniProt Q99536: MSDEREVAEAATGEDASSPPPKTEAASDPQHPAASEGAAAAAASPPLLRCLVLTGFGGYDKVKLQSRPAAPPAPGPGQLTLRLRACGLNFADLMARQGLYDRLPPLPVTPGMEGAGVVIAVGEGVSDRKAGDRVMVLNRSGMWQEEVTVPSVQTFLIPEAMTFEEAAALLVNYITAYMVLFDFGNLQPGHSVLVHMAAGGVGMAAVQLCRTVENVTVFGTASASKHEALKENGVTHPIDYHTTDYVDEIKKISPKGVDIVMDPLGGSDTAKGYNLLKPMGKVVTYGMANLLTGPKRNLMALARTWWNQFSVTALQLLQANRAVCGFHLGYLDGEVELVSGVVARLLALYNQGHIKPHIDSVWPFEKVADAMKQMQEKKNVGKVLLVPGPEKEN
# UniProt Q9BQ87: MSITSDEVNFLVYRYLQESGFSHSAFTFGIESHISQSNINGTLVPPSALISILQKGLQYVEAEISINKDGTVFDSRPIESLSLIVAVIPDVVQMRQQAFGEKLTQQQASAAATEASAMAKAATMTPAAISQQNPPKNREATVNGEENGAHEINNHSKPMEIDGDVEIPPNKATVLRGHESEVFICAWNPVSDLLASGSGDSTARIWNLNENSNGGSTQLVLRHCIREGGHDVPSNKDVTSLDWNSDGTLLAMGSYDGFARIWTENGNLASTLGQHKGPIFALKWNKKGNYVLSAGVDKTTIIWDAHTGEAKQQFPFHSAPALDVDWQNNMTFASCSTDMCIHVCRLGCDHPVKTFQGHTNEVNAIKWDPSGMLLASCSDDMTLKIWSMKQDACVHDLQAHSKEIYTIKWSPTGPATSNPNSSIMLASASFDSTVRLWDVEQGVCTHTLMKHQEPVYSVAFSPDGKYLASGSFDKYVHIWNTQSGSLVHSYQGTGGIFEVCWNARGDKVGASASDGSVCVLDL
# UniProt Q9BQP7: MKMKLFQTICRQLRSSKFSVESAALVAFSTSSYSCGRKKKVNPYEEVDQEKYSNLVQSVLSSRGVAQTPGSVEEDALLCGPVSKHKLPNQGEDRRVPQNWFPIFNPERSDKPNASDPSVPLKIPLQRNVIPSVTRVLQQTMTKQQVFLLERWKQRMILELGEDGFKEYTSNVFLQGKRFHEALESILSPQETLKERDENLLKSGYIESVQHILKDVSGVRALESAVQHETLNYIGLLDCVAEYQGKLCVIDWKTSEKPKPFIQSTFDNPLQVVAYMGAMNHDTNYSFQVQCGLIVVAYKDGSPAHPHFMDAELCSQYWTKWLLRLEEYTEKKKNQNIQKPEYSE
# UniProt Q9BRL6: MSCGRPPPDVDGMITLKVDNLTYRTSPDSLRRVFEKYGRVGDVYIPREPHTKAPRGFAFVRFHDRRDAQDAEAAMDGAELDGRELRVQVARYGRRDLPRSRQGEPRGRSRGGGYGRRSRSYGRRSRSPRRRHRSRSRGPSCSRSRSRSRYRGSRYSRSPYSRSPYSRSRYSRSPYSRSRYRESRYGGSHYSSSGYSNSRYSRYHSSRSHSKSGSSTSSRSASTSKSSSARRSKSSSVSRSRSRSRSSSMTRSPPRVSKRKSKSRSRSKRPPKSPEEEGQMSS
# UniProt Q99575: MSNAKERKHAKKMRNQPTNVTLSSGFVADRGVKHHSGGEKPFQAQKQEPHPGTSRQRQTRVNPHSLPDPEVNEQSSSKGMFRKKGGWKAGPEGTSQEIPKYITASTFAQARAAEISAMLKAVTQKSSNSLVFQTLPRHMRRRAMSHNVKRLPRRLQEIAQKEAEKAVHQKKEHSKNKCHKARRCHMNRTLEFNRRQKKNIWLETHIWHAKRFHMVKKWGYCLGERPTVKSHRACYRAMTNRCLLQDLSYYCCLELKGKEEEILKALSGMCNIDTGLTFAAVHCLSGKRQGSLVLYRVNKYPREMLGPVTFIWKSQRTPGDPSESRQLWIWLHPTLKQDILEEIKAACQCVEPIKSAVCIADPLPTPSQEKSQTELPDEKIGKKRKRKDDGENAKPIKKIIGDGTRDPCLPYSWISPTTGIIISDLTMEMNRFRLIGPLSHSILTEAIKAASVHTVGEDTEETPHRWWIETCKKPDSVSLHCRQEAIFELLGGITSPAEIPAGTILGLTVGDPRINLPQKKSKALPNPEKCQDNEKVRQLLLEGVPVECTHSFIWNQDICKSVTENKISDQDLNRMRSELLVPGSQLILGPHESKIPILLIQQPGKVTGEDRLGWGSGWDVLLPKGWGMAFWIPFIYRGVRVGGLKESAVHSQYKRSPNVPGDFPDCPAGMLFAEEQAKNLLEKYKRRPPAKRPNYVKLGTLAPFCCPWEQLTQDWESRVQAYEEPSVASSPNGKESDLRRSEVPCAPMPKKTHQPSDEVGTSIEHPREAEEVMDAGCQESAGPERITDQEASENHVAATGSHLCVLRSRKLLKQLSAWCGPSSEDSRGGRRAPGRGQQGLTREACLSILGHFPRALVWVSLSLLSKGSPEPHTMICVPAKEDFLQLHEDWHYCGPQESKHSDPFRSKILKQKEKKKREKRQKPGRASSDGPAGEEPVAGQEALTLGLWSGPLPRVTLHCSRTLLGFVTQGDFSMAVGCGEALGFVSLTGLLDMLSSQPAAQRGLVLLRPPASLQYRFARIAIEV
# UniProt Q9BQD3: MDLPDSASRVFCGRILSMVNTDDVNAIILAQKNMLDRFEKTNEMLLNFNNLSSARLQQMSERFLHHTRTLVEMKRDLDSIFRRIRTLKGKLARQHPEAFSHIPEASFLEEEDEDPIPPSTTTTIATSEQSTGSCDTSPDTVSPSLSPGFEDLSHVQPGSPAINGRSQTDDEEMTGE
# UniProt Q9BQ61: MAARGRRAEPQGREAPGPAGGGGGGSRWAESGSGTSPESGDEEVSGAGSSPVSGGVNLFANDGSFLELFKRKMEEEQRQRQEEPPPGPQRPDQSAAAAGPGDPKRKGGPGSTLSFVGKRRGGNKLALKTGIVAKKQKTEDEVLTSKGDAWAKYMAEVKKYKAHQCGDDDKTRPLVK
# This is one part of the list. Most values lie at the level of the controls, where differences are scatter.
# Compound: CN[C@@H]1C[C@H]2O[C@@](C)([C@@H]1OC)n1c3ccccc3c3c4c(c5c6ccccc6n2c5c31)C(=O)NC4 [staurosporine]
# Experiment: log2 fold change of tryptic peptide abundance, ligand vs vehicle (limited proteolysis) (log2 ratio); higher = more trypsin-susceptible (destabilized)
# Details: ligand concentration: 20 uM; sample: K562 cleared lysate; digestion: 4 min, 22 C (HT-PELSA RT4min, Orbitrap Astral)
row,Target,log2 fold change
1,"RBM42 (peptide sequence: ELGLGLGLGLK, peptide start residue: 236) (UniProt Q9BTD8)",0.0949
2,"NAPG (peptide sequence: NDYVAAERCVR, peptide start residue: 208) (UniProt Q99747)",-0.909
3,"CEP250 (peptide sequence: ENLTAQVEHLQAAVVEAR, peptide start residue: 1351) (UniProt Q9BV73)",0.463
4,"VAT1 (peptide sequence: GYNLLKPMGK, peptide start residue: 272) (UniProt Q99536)",0.167
5,"UniProt Q9BQ87 (peptide sequence: YLASGSFDK, peptide start residue: 456)",-0.263
6,"UniProt Q9BQP7 (peptide sequence: QQVFLLER, peptide start residue: 144)",0.157
7,"TRMT61B (peptide sequence: ELEDSSGDQGR, peptide start residue: 101) (UniProt Q9BVS5)",0.162
8,"SRSF8 (peptide sequence: VGDVYIPREPHTKAPR, peptide start residue: 40) (UniProt Q9BRL6)",0.493
9,"POP1 (peptide sequence: NQPTNVTLSSGFVADR, peptide start residue: 15) (UniProt Q99575)",-0.142
10,"KXD1 (peptide sequence: DLDSIFR, peptide start residue: 76) (UniProt Q9BQD3)",-0.133
11,"UniProt Q9BQ61 (peptide sequence: KQKTEDEVLTSK, peptide start residue: 135)",-0.52

# From no. 1 as far as 2, as listed above:
row,Target,log2 fold change
1,"RBM42 (peptide sequence: ELGLGLGLGLK, peptide start residue: 236) (UniProt Q9BTD8)",0.0949
2,"NAPG (peptide sequence: NDYVAAERCVR, peptide start residue: 208) (UniProt Q99747)",-0.909
